Source: patent publication US20100136537
Results from cells or extracts need not show a direct contact. For some assays here: Negatives hold for the conditions tested. For some assays here: Where a protein sequence is shown, tags need not be part of it. For some assays here: Weaker means in comparison with the reference protein, sequence or condition of that experiment. For some assays here: Construct, isoform or probe ends are uncertain for at least one entry.

Amino acid sequences for entries named in this document (tags omitted).
UniProt P54845, whole entry A76V: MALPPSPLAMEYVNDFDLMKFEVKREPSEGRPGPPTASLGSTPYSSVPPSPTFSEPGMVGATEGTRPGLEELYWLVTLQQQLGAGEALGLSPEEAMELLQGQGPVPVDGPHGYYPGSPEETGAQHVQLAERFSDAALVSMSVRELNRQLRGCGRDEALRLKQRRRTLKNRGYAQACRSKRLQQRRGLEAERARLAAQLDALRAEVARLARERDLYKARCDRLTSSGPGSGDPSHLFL
UniProt P54845, whole entry L160P: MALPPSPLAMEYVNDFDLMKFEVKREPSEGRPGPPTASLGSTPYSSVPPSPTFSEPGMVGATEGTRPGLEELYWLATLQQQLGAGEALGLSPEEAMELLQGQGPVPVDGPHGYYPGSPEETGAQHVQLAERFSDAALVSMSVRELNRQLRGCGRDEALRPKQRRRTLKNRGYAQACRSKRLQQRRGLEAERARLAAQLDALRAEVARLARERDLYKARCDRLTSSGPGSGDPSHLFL

How the values were obtained:
NRL p.A76V = NRL p.A76V (UniProt P54845); test: EMSA; details: appeared lower than WT binding; protein in a lysate after overexpression; label: 32P
NRL p.R218fs = NRL p.R218fs (UniProt P54845); test: EMSA; details: protein in a lysate after overexpression; label: 32P
NRL p.L160P = NRL p.L160P (UniProt P54845); test: EMSA; details: protein in a lysate after overexpression; label: 32P
NRL p.L160fs = NRL p.L160fs (UniProt P54845); test: EMSA; details: protein in a lysate after overexpression; label: 32P
NRL [1] = target: NRL (UniProt P54845); test: EMSA; details: protein in a lysate after overexpression; label: 32P
NRL [2] = target: NRL (UniProt P54845); test: competition with a labelled probe; details: NS oligo did not compete for the shifted band; protein in a lysate after overexpression
NRL [3] = target: T1, NRL (UniProt P54846); test: competition with a labelled probe; details: mutant oligo did not compete; protein in a lysate after overexpression; protein details: COS-1 nuclear extract; variant of Nr2e3-NRE
T1 sequence (looked up, limits assumed): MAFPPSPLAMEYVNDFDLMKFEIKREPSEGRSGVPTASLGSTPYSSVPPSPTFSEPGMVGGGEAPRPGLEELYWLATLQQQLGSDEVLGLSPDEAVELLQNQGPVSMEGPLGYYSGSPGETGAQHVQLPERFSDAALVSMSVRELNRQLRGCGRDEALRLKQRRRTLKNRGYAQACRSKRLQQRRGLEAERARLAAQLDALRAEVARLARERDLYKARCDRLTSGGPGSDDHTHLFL

NRL [4] = target: T1, NRL; test: EMSA; details: protein in a lysate after overexpression; protein details: COS-1 nuclear extract; label: 32P

What does the source list for “CTCCGAGGTGCTGATTCAGCCGGGA (double strand) [rhodopsin-NRE]”?
binding result (NRL p.A76V): binds more weakly; binding result (NRL p.R218fs): no binding; binding result (NRL p.L160P): no binding; binding result (NRL p.L160fs): no binding; binding result (NRL [1]): binds

Does “GAGGGAGATATGCTTCATAAGGGCT (double strand) [non-specific oligo NS]” bind (NRL [2])?
Result: no binding

Does “TGGCCTCTGGTGGCTTTATTTGCAGTTCCAAGGCT (double strand) [Nr2e3-NRE mutant]” bind (NRL [3])?
Result: no binding

Does “TGGCCTCTGGTGGCTTTGTCAGCAGTTCCAAGGCT (double strand) [Nr2e3-NRE]” bind (NRL [4])?
Result: binds
